These results are taken from paper doi:10.1101/2023.12.18.572149.

Results are given in words; binding and its absence hold for the method and conditions named. Binding seen in cells or lysates may run through a third protein. Some results given as binding are weak or reduced against the parent protein; the word gives no strength.

In the assay the target is T1, Multiple C2 domains and transmembrane domain protein 4 (MCTP4), transiently expressed for co-immunoprecipitation (Arabidopsis thaliana) (UniProt Q9C8H3).
T1 sequence: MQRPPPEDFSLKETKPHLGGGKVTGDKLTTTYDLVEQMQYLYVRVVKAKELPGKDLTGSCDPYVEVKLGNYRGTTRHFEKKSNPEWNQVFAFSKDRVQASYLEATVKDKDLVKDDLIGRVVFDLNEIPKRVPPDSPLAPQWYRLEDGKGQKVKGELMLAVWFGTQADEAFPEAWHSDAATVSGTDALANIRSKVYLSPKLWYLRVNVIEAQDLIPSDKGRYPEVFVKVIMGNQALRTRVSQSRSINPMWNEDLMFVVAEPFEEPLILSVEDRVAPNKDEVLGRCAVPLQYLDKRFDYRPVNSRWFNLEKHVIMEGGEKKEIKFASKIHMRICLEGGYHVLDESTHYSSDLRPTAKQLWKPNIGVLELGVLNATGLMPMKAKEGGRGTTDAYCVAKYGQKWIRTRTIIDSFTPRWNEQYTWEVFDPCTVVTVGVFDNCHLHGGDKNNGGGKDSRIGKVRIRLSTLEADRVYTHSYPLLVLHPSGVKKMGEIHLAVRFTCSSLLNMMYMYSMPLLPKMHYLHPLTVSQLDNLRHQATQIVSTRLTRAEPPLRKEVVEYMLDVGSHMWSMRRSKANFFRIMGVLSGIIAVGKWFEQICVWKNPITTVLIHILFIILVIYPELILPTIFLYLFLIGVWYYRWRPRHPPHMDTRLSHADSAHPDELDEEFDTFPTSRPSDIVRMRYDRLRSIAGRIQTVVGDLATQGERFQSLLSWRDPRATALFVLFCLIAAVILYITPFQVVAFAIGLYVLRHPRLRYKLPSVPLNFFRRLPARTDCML
Kind of assay: co-IP.

B1: Multiple C2 domains and transmembrane domain protein 6 (MCTP6), transiently expressed for co-immunoprecipitation (protein, UniProt Q9SKA3 1-1029)
chain: MNKLVVEIVDASDLMPKDGQGSASPFVEVEFDEQRQRTQTRFKDLNPQWNEKLVFNVGDLKRLNNKTVDVTVYDDRRDNQPGKFLGRVKIAGAVVPLSESESGVQRYPLDKRGLFSNIKGDIALRIYAAPIDGGDFVSPPPDFAEKVMKEDKRFESQEFQFQNQNQNQNHYEQFEDEINNMETLKPTKKKEKESRTFHSIGAHAGGGGGAPPMSQAKQAYPPPPNQPEFRSDFMRAPGPPTGAVMQMQPPRQQNPEFQLIETSPPLAARMRQSYYYRSSGDKTSSTYDLVEQMHYLYVSVVKARDLPVMDVSGSLDPYVEVKLGNYKGLTKHLEKNSNPIWKQIFAFSKERLQSNLLEVTVKDKDLLTKDDFVGRVHIDLTEVPLRVPPDSPLAPQWYRLEDKKGMKTNRGEIMLAVWMGTQADESFPDAWHSDAHRVSHSNLSNTRSKVYFSPKLYYLRIHVMEAQDLVPSDKGRVPDAIVKIQAGNQMRATRTPQMRTMNPQWHEELMFVVSEPFEDMVIVSVDDRIGPGKDEILGRVFIPVRDVPVRQEVGKMPDPRWFNLQRHSMSMEEENEKRKEKFSSKILLRVCIEAGYHVLDESTHFSSDLQPSSKHLRKPSIGILELGILSARNLMPMKGKDGRMTDPYCVAKYGNKWVRTRTLLDALAPKWNEQYTWEVHDPCTVITIGVFDNSHVNDGGDFKDQRIGKVRVRLSTLETDRVYTHFYPLLVLTPGGLKKNGELQLALRYTCTGFVNMMAQYGRPLLPKMHYIQPIPVRHIDLLRHQAMQIVATRLSRSEPPLRREVVEYMLDVDYHMFSLRRSKANFSRIMSLLSSVTLVCKWFNDICTWRNPITTCLVHVLFLILVCYPELILPTVFLYLFVIGMWNYRYRPRHPPHMDARVSQADNAHPDELDEEFDTFPTSRPADIVRMRYDRLRSVGGRVQTVVGDLATQGERIQALLSWRDPRATALFIVFALIWAVFIYVTPFQVIAIIIGLFMLRHPRFRSRMPSVPANFFKRLPAKSDMLL
Take B1: the binding result is reported as “binds”.
